Data as given in PubChem BioAssay AID1259254 (NCATS, 2017).
Assay: 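Genome-wide screen for genes that prevent DNA re-replication in cancer cells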 (primary screen). Cells: human HCT116 colorectal cancer cells. Reagent: single siRNA against human genes. Time to read-out: 3 days. Measurement: 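Imaged Hoechst DNA stain sorts each cell into a cycle phase by DNA amount; per plate, G2 fraction set to 0% for non-targeting and 100% for GMNN siRNA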. Reading the numbers: G2 robust z-score and G2 cells, % of GMNN control: higher = more G2 cells, more excess DNA replication. Call rule: 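Active siRNAs have a G2 robust z of 5 or more median absolute deviations over the median, which in these data means about 38% or higher of GMNN control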.
The whole screen tested about 59,000 reagents; shown is an unselected part. Over the whole deposit, about 1,550 (2.6%) were called active. 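G2 share is only a proxy for re-replication; each gene was hit by three separate siRNAs, and active genes were retested.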 A number with no mark means an inactive call. Reagents against one gene are numbered here. Further read-outs or replicates are left out here. Not stated in the record: the amount of reagent.

no.	Gene	reagent no.	G2 robust z-score	G2 cells, % of GMNN control
1	LHX1 (GeneID 3975)	1	-0.883	-3.24
2	LHX1 (GeneID 3975)	2	0.824	8.77
3	LHX1 (GeneID 3975)	3	0.91	9.37
4	KDM4D (GeneID 55693)	1	-0.853	-3.03
5	KDM4D (GeneID 55693)	2	-0.248	1.22
6	KDM4D (GeneID 55693)	3	-0.0924	2.32
7	NIPAL4 (GeneID 348938)	1	-0.272	1.05
8	NIPAL4 (GeneID 348938)	2	0.871	9.09
9	NIPAL4 (GeneID 348938)	3	0.102	3.68
10	NUP43 (GeneID 348995)	1	1.96	16.7
11	NUP43 (GeneID 348995)	2	0.827	8.78
12	NUP43 (GeneID 348995)	3	1.99	17
13	RBP1 (GeneID 5947)	1	-1.31	-6.28
14	RBP1 (GeneID 5947)	2	0.435	6.03
15	RBP1 (GeneID 5947)	3	0.0864	3.58
16	COMMD5 (GeneID 28991)	1	3.36	26.6
17	COMMD5 (GeneID 28991)	2	-0.318	0.732
18	COMMD5 (GeneID 28991)	3	0.995	9.97
19	MYL6 (GeneID 4637)	1	0.0886	3.59
20	MYL6 (GeneID 4637)	2	0.628	7.38
21	MYL6 (GeneID 4637)	3	1.18	11.3
22	MPP3 (GeneID 4356)	1	-1.26	-5.9
23	MPP3 (GeneID 4356)	2	-0.00194	2.95
24	MPP3 (GeneID 4356)	3	-0.352	0.493
25	APLF (GeneID 200558)	1	-0.852	-3.03
26	APLF (GeneID 200558)	2	-0.497	-0.531
27	APLF (GeneID 200558)	3	-0.442	-0.142
28	RTL4 (GeneID 340595)	1	-0.569	-1.03
29	RTL4 (GeneID 340595)	2	0.259	4.79
30	RTL4 (GeneID 340595)	3	0.649	7.53
31	KRT7 (GeneID 3855)	1	3.21	25.6
32	KRT7 (GeneID 3855)	2	0.541	6.78
33	KRT7 (GeneID 3855)	3	-0.659	-1.67
34	UGT1A5 (GeneID 54579)	1	-0.501	-0.554
35	UGT1A5 (GeneID 54579)	2	0.807	8.65
36	UGT1A5 (GeneID 54579)	3	0.508	6.54
37	MYO3A (GeneID 53904)	1	-0.355	0.472
38	MYO3A (GeneID 53904)	2	7.24 (active)	53.9
39	MYO3A (GeneID 53904)	3	0.739	8.16
40	MEF2C (GeneID 4208)	1	-0.474	-0.366
41	MEF2C (GeneID 4208)	2	-1.28	-6.03
42	MEF2C (GeneID 4208)	3	-0.317	0.74
43	RPTOR (GeneID 57521)	1	1.56	14
44	RPTOR (GeneID 57521)	2	-0.591	-1.19
45	RPTOR (GeneID 57521)	3	-0.679	-1.81
46	MCRIP1 (GeneID 348262)	1	0.246	4.7
47	MCRIP1 (GeneID 348262)	2	0.00295	2.99
48	MCRIP1 (GeneID 348262)	3	2.54	20.9
49	SARM1 (GeneID 23098)	1	-0.541	-0.838
50	SARM1 (GeneID 23098)	2	-0.831	-2.88
51	SARM1 (GeneID 23098)	3	2.02	17.2
52	ARRDC3 (GeneID 57561)	1	0.818	8.73
53	ARRDC3 (GeneID 57561)	2	2.03	17.3
54	ARRDC3 (GeneID 57561)	3	1.72	15.1
55	SAMSN1 (GeneID 64092)	1	1.34	12.4
56	SAMSN1 (GeneID 64092)	2	-0.23	1.35
57	SAMSN1 (GeneID 64092)	3	0.88	9.16
58	SAMSN1 (GeneID 64092)	4	-1.33	-6.39
59	SAMSN1 (GeneID 64092)	5	5.82 (active)	43.9
60	SAMSN1 (GeneID 64092)	6	-0.352	0.491
61	ZNF704 (GeneID 619279)	1	0.989	9.93
62	ZNF704 (GeneID 619279)	2	-0.418	0.028
63	ZNF704 (GeneID 619279)	3	0.606	7.23
64	PPY (GeneID 5539)	1	-0.587	-1.16
65	PPY (GeneID 5539)	2	-0.628	-1.45
66	PPY (GeneID 5539)	3	8.1 (active)	60
67	H2BC1 (GeneID 255626)	1	1.37	12.6
68	H2BC1 (GeneID 255626)	2	-0.75	-2.31
69	H2BC1 (GeneID 255626)	3	-0.325	0.684
70	C7orf25 (GeneID 79020)	1	0.821	8.74
71	C7orf25 (GeneID 79020)	2	-0.493	-0.503
72	C7orf25 (GeneID 79020)	3	-0.995	-4.03
73	GAA (GeneID 2548)	1	-0.028	2.77
74	GAA (GeneID 2548)	2	1.94	16.6
75	GAA (GeneID 2548)	3	1.75	15.3
76	NPHP1 (GeneID 4867)	1	0.928	9.5
77	NPHP1 (GeneID 4867)	2	0.715	8
78	NPHP1 (GeneID 4867)	3	4.94	37.7
79	SLC17A2 (GeneID 10246)	1	2.01	17.1
80	SLC17A2 (GeneID 10246)	2	1.43	13
81	SLC17A2 (GeneID 10246)	3	-1.04	-4.33
82	EYS (GeneID 346007)	1	4.06	31.5
83	EYS (GeneID 346007)	2	0.667	7.66
84	EYS (GeneID 346007)	3	-0.504	-0.582
85	EYS (GeneID 346007)	4	-0.209	1.5
86	EYS (GeneID 346007)	5	-0.132	2.04
87	EYS (GeneID 346007)	6	1.84	15.9
88	EYS (GeneID 346007)	7	-0.019	2.83
89	EYS (GeneID 346007)	8	0.177	4.22
90	EYS (GeneID 346007)	9	-0.469	-0.331
